We go through one substance from paper doi:10.1101/503680 (bioRxiv, 2018).

Chains of the proteins cited; added tags and fusions are not shown. Lines headed by an entry give the natural chain unless they say otherwise; changes in a name come on top. A line that says so, or that is headed by a name, gives the form on record, which may keep a tag or linker. Residues count along the entry.
FLAG-KIF3A-motor (P28741, residues 1-350): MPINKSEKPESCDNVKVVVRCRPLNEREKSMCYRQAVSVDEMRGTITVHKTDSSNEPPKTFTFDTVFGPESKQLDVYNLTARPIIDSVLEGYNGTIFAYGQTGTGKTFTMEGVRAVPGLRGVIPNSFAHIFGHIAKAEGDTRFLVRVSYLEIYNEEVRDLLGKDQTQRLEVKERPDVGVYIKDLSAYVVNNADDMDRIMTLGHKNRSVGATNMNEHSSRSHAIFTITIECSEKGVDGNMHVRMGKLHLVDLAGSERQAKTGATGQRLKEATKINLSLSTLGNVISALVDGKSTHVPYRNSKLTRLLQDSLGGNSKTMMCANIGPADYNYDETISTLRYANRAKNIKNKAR
GST-KIF3A-S689A-Tail (expressed in HEK293 cells) (P28741, form named): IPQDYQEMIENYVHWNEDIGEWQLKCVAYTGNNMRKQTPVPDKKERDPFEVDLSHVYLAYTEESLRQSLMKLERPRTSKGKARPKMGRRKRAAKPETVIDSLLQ

In the assay the target is FLAG-KIF3A-motor (mouse) (UniProt P28741). The assay can be described thus: co-IP.

Results are given in words; binding and its absence hold for the method and conditions named. In cells and extracts the contact can be indirect. Some binding calls cover weakened binding; strength is not graded here.

Regarding “GST-KIF3A-S689A-Tail (expressed in HEK293 cells) (from UniProt P28741 598-701) (domain or fragment)”, the binding result was “binds”.
